Reference: paper PMC3390413
Results are given in words; binding and its absence hold for the method and conditions named. In cells and extracts the contact can be indirect. Some results given as binding are weak or reduced against the parent protein; the word gives no strength. Tags and fused reporters may be left off the sequences shown.

Amino acid sequences for entries named in this document (tags omitted).
UniProt O15027: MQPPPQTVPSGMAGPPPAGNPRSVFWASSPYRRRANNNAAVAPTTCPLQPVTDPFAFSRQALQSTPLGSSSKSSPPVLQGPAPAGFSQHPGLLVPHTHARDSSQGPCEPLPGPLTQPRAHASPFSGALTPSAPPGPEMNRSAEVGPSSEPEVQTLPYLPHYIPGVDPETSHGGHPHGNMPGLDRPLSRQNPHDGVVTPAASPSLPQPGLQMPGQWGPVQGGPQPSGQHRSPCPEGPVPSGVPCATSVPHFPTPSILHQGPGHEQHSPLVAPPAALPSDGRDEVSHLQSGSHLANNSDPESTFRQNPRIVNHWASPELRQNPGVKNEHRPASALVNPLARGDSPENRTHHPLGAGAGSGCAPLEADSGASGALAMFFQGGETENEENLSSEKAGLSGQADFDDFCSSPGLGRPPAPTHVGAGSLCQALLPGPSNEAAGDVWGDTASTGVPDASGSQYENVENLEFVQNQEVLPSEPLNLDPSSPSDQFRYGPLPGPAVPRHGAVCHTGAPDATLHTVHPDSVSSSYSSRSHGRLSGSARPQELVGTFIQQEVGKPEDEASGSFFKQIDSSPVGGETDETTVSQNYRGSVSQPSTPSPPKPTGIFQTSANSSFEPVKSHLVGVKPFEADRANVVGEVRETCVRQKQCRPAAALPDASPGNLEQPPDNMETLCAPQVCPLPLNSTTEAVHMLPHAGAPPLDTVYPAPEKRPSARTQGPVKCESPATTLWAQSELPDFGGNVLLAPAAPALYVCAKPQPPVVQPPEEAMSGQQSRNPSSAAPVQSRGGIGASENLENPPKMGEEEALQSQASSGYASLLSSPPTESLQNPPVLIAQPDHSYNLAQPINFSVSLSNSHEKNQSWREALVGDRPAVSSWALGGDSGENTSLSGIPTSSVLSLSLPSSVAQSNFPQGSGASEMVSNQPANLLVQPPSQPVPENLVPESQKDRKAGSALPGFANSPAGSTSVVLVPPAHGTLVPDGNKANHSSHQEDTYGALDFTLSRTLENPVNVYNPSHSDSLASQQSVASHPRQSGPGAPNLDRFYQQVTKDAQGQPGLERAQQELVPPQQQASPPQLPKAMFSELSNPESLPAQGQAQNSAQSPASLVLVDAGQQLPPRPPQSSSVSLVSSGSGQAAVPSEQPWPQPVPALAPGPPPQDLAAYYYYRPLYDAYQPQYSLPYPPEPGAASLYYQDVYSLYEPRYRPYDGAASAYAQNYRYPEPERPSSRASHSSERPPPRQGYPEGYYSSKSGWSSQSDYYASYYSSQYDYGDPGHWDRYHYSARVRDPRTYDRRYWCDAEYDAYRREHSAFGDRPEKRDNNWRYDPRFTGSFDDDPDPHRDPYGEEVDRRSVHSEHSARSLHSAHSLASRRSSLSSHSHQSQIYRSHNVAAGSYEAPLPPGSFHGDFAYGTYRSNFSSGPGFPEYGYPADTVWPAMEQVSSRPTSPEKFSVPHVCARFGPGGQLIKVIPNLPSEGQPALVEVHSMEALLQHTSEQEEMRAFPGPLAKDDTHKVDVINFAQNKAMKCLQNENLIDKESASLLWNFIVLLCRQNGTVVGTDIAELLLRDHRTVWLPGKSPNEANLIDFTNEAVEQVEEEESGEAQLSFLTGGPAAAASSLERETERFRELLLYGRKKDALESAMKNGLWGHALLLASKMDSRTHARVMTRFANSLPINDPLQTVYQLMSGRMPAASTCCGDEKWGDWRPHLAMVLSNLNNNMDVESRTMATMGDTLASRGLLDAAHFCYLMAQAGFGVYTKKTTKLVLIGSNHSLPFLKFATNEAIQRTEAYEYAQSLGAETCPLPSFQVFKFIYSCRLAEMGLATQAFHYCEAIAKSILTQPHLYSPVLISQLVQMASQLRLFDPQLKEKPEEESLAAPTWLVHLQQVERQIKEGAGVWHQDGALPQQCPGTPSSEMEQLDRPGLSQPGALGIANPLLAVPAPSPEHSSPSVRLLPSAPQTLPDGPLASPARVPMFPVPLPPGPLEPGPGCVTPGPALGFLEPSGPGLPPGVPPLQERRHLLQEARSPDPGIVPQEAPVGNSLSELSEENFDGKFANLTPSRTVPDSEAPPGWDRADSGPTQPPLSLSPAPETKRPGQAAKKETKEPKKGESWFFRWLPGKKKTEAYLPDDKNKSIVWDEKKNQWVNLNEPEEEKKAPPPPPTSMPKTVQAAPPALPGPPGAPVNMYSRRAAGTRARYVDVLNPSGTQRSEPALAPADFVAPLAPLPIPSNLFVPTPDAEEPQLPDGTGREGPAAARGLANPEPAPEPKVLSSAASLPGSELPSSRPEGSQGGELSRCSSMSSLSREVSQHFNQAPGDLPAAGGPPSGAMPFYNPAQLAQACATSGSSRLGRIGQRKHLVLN

How the values were obtained:
[1] = target: T1, FLAG-TRAF2 (UniProt Q12933); assay: co-IP; tagged proteins co-expressed in 293T cells; immunoprecipitation of whole cell extracts and immunoblot
T1 sequence: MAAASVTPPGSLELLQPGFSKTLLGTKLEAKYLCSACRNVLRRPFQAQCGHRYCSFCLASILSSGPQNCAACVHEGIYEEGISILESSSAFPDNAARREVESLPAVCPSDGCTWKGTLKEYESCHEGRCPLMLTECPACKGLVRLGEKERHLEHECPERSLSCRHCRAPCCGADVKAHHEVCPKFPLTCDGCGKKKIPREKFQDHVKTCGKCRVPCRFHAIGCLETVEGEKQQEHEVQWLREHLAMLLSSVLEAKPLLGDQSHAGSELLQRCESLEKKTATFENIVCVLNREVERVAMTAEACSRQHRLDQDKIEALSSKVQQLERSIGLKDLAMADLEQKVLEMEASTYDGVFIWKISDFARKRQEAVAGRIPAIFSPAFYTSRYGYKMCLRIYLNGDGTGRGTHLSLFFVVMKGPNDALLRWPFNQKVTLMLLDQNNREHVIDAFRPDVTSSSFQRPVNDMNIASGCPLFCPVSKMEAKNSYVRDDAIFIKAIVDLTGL

[2] = target: EGFP-Sec16A (UniProt O15027); assay: as above

binding [1]: no binding | binding [2]: binds
B1: Myc-p115 (protein, UniProt O60763 1-962)
chain: MNFLRGVMGGQSAGPQHTEAETIQKLCDRVASSTLLDDRRNAVRALKSLSKKYRLEVGIQAMEHLIHVLQTDRSDSEIIGYALDTLYNIISNEEEEEVEENSTRQSEDLGSQFTEIFIKQQENVTLLLSLLEEFDFHVRWPGVKLLTSLLKQLGPQVQQIILVSPMGVSRLMDLLADSREVIRNDGVLLLQALTRSNGAIQKIVAFENAFERLLDIISEEGNSDGGIVVEDCLILLQNLLKNNNSNQNFFKEGSYIQRMKPWFEVGDENSGWSAQKVTNLHLMLQLVRVLVSPTNPPGATSSCQKAMFQCGLLQQLCTILMATGVPADILTETINTVSEVIRGCQVNQDYFASVNAPSNPPRPAIVVLLMSMVNERQPFVLRCAVLYCFQCFLYKNQKGQGEIVSTLLPSTIDATGNSVSAGQLLCGGLFSTDSLSNWCAAVALAHALQENATQKEQLLRVQLATSIGNPPVSLLQQCTNILSQGSKIQTRVGLLMLLCTWLSNCPIAVTHFLHNSANVPFLTGQIAENLGEEEQLVQGLCALLLGISIYFNDNSLESYMKEKLKQLIEKRIGKENFIEKLGFISKHELYSRASQKPQPNFPSPEYMIFDHEFTKLVKELEGVITKAIYKSSEEDKKEEEVKKTLEQHDNIVTHYKNMIREQDLQLEELRQQVSTLKCQNEQLQTAVTQQVSQIQQHKDQYNLLKIQLGKDNQHQGSYSEGAQMNGIQPEEIGRLREEIEELKRNQELLQSQLTEKDSMIENMKSSQTSGTNEQSSAIVSARDSEQVAELKQELATLKSQLNSQSVEITKLQTEKQELLQKTEAFAKSVEVQGETETIIATKTTDVEGRLSALLQETKELKNEIKALSEERTAIKEQLDSSNSTIAILQTEKDKLELEITDSKKEQDDLLVLLADQDQKILSLKNKLKDLGHPVEEEDELESGDQEDEDDESEDPGKDLDHI
